{"source": "patent US20240058288A1", "about": "“DRUG COCKTAIL FOR TREATMENT OF PARKINSON'S DISEASE, LEWY BODY DISEASE AND MULTIPLE SYSTEM ATROPHY” (ALETA NEUROSCIENCE, LLC, priority 2021, published 2024)", "origin": "cited, not measured here", "system": "PrP", "conditions": "cell-free aggregation assays, chronically and acutely infected cell cultures; cited from earlier work", "note": "For at least one compound, name, drawing or mass did not settle the structure.", "data": [{"smiles": "C[C@H](CCC(=O)O)[C@H]1CC[C@H]2[C@@H]3[C@@H](O)C[C@@H]4C[C@H](O)CC[C@]4(C)[C@H]3CC[C@]12C", "note": "[UDCA, ursodeoxycholic acid]", "values": [{"measurement": "PrP conversion", "value": "substantially reduced PrP conversion"}]}]}
